In PubChem BioAssay AID1671190 (National Center for Advancing Translational Sciences (NCATS), 2021):
Out of some 580,000 compounds screened, about 6,100 (1.1%) were called active. The inconclusive results got no clear call from the source; some entries with a clear call stand among them for comparison. Calls follow the shape of the dose curve; as a rule, active = well fitted inhibition curve with a large enough effect; inconclusive = small, poorly fitted or top-dose-only effect, or another doubt; inactive = no such curve, though single readings can be large or run the other way. Potencies beside an inconclusive call are fits to weak or partial responses and may not hold up. Some compounds were tested as several samples or in several runs, with calls that do not always agree.

Chains of the proteins cited; added tags and fusions are not shown.
UniProt P18054, whole entry, looked up: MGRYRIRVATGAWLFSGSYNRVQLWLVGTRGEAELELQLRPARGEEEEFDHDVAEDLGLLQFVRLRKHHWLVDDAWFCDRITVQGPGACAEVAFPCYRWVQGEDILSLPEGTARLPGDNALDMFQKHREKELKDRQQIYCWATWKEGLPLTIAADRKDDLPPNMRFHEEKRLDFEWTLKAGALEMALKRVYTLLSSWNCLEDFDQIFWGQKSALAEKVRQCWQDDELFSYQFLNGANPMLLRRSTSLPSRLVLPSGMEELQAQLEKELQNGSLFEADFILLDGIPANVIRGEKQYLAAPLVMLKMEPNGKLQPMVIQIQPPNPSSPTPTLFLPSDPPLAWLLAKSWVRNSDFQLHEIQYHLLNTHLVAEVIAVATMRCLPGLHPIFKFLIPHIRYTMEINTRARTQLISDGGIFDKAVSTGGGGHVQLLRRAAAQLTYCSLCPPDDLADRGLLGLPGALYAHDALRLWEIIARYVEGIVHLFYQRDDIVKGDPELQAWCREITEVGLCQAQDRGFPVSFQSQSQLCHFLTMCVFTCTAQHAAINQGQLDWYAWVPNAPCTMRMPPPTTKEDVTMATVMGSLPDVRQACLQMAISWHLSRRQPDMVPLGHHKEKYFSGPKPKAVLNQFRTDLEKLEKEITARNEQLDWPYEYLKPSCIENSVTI

molecular target: Polyunsaturated fatty acid lipoxygenase ALOX12 (Homo sapiens) (UniProt P18054); test: Primary qHTS assay for inhibitors of human arachidonate 12S-lipoxygenase (ALOX12): Round 2; details: purified 12hLO, xylenol orange hydroperoxide absorbance; series mostly up to 108 µM
How it was run: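 Hydroperoxide product was detected by ferrous iron/xylenol orange as the 573 to 405 nm absorbance ratio. Arachidonic acid at 40 uM (final) was turned over for 30 min at room temperature by 150 nM human 12hLO, pH 7.0 Hepes buffer, after 15 min compound preincubation.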
Potency is read from the fitted curve at half-maximal effect.

SMILES | Potency
O=C1C=C(c2ccc(O)cc2)C[C@@H](c2ccc(Cl)cc2)C1 | inconclusive: 89.1 µM [inhibitor, partial curve, poor fit]
COc1cc(C=NNC(=S)Nc2ccc(S(=O)(=O)N3CCCCC3)cc2)cc(OC)c1OC | inconclusive: 39.8 µM [inhibitor, partial curve, poor fit]
CCN(CC)c1ccc2nnc(CCC(=O)N3CCC4(CC3)OCCO4)n2n1 | inactive
CC(C)[n+]1c(NCc2cc(Br)cc(Br)c2[O-])[nH]c2ccccc21 | inconclusive: 141 µM [inhibitor, partial curve, poor fit]
Cc1ccc(CNC(=O)c2ccc(C)s2)cc1 | inconclusive: 70.8 µM [inhibitor, single point]
Cc1cc(C(=O)OCC(=O)N2CC(=O)Nc3ccccc32)c(C)n1-c1ccccc1 | inactive
O=S(=O)(c1ccccc1)n1nc(-c2ccc(Cl)cc2)nc1NCc1ccc(F)cc1 | inconclusive: 100 µM [inhibitor, partial curve, poor fit]
S=C(NCc1cccs1)NCC1CCCCC1 | inconclusive: 39.8 µM [inhibitor, partial curve, poor fit]
CC(=O)N1CC[C@H](c2nnc(-c3cccnc3)o2)C1 | inconclusive: 35.5 µM [inhibitor, full curve, poor fit]
Cc1ccc(C)c(-n2c(-c3ccc4c(c3)OCO4)n[nH]c2=S)c1 | inconclusive: 3.55 µM [inhibitor, full curve, poor fit]
O=C(CSc1ncc(C(F)(F)F)cc1Cl)c1ccc(Br)s1 | inconclusive: 44.7 µM [inhibitor, partial curve, poor fit]
O=C(/C=C/c1ccc(Br)cc1)c1ccc(O)c(CCCl)c1 | inconclusive: 44.7 µM [inhibitor, partial curve, poor fit]
Cc1ccc(-n2c(C)cc(/C=C(\C#N)C(=O)NCC3CCCO3)c2C)cc1 (stereo unspecified) | inconclusive: 5.01 µM [inhibitor, full curve, poor fit]
c1ccc(-c2nc(NCc3ccco3)c3ccccc3n2)nc1 | inactive
COCCNC(=O)/C(C#N)=C/c1c(N2CCN(c3ccccc3)CC2)nc2ccccn2c1=O | inconclusive: 112 µM [inhibitor, single point]
CCCCSCCCNC(=O)c1cn(CC)c2ccc(S(=O)(=O)N(C)C3CCCCC3)cc2c1=O | inconclusive: 31.6 µM [inhibitor, partial curve, poor fit]
COc1ccc(-c2noc(Nc3cc(OC)cc(OC)c3)n2)cc1 | active: 17.8 µM
COCCN=C1NN=C(c2ccc(C)c([N+](=O)[O-])c2)CS1 | inactive
CC1(C)CN(c2ccc(Br)cc2)C(=O)[C@H]1CC(=O)Nc1ccccc1 | inconclusive: 50.1 µM [inhibitor, partial curve, poor fit]
CC(=O)NCCNc1ncnc2ccc(-c3ccc(C(=O)N(C)C)cc3)cc12 | inconclusive: 25.1 µM [inhibitor, partial curve, poor fit]
COc1ccc(S(=O)(=O)Nc2ccc(Nc3cc(N4CCCC4)nc(C)n3)cc2)c(C)c1C | inconclusive: 50.1 µM [inhibitor, partial curve, poor fit]
Cc1ccc(NS(=O)(=O)c2ccccc2)c(=O)n1CC(=O)N(C)C | inconclusive: 3.55 µM [inhibitor, full curve]

SMILES | Potency
CCNC(=O)NC(=O)CN(C)Cc1ccc(C2CC2C)o1 (stereo unspecified) | inactive
Cc1cc(C)c2nc(NNC(=O)c3ccc(S(=O)(=O)N4CC(C)CC(C)C4)cc3)sc2c1 (stereo unspecified) | active: 6.31 µM
Cc1cccc(-n2c3nc(=O)n(C)c(=O)c-3cc3c(C)nn(-c4ccccc4)c32)c1C | inconclusive: 44.7 µM [inhibitor, partial curve, poor fit]
O=C(CCl)c1c[nH]c2ccccc12 | inconclusive: 50.1 µM [inhibitor, single point]
O=C(c1ccccc1)N1C[C@@H]2C[C@H](C1)c1ccc(NS(=O)(=O)c3cccc(F)c3)c(=O)n1C2 | inconclusive: 1.58 µM [inhibitor, full curve, poor fit]
COc1cccc(CN2C[C@@H]3C(=O)N(Cc4ccc5c(c4)OCO5)C(=O)[C@@H]3C2)c1 | inconclusive: 6.31 µM [inhibitor, full curve, poor fit]
Clc1ccc2c(NCc3ccccc3)ccnc2c1 | inactive
CN(CC(=O)Nc1cccc(F)c1)C(=O)CN1C(=O)NC2(CCCC2)C1=O | inconclusive: 158 µM [inhibitor, single point]
N#C/C(=C/c1ccc([N+](=O)[O-])cc1)c1ccc(C(F)(F)F)cn1 | inconclusive: 25.1 µM [inhibitor, single point]
COc1ccc(-c2csc(=NCCO)n2-c2ccccc2)cc1 | inconclusive: 44.7 µM [inhibitor, partial curve]
Cc1ccc(S(=O)(=O)/N=C2/NC(=O)/C(=C\c3ccco3)S2)cc1 | inconclusive: 31.6 µM [inhibitor, single point]
O=C(NCC1CCCO1)/C(=C\c1ccccc1)NC(=O)c1ccccc1 (stereo unspecified) | inactive
CC1CCN(C(=O)c2ccc(CSc3nc4ccncc4n3Cc3ccc(F)cc3)cc2)CC1 | inactive
CCCCCCSc1ccc([C@@H]2[C@H]3C(=O)N(C)C(=O)[C@H]3[C@]3(C(=O)OC)CCCCN23)cc1OC | inconclusive: 50.1 µM [inhibitor, partial curve, poor fit]
CC(C)c1nc(N2CCOCC2)c(C#N)c2c1CCC2 | inactive
Cn1nc(C(=O)OCCOc2ccccc2)c2ccccc2c1=O | inactive
C=C(C)CNC(=S)NNC(=S)NC1CCCC(C)C1C (stereo unspecified) | inconclusive: 112 µM [inhibitor, single point]
CN(C)c1ccc(/C=C(/C#N)C(=O)Nc2nc3c(s2)CCN(Cc2ccccc2)C3)cc1 | inactive
CCNC(=S)Nc1ccc2c(c1)c(=O)n(C)n2-c1ccc(C(C)(C)C)cc1 | inactive
COc1ccc(OCc2n[nH]c(=S)n2-c2ccc(C)cc2)cc1 | inconclusive: 56.2 µM [inhibitor, single point]
CCOC(=O)C1=C(CN(CC)Cc2ccccc2)NC(=O)NC1c1ccc(Cl)cc1 (stereo unspecified) | inconclusive: 17.8 µM [inhibitor, partial curve]
CCOC(=O)c1cnn(-c2cccc(Cl)c2)c1C1CCN(C(=O)OC(C)(C)C)CC1 | inconclusive: 12.6 µM [inhibitor, partial curve, poor fit]

Part of the list above in order of heavy-atom count, descending:
SMILES | Potency
Cc1cc(C)c2nc(NNC(=O)c3ccc(S(=O)(=O)N4CC(C)CC(C)C4)cc3)sc2c1 (stereo unspecified) | active: 6.31 µM
Cc1cccc(-n2c3nc(=O)n(C)c(=O)c-3cc3c(C)nn(-c4ccccc4)c32)c1C | inconclusive: 44.7 µM [inhibitor, partial curve, poor fit]
CC(C)c1nc(N2CCOCC2)c(C#N)c2c1CCC2 | inactive

Continued:

SMILES | Potency
COC(=O)[C@@]12C[C@@H](CC(=O)NCc3ccccc3)C(=O)N(Cc3ccc4c(c3)OCO4)C1=CCC(C)(C)C2 | inactive
Cc1ccc(C(=O)C2CCN(S(=O)(=O)c3c(C)noc3C)CC2)cc1 | inconclusive: 158 µM [inhibitor, single point]
Cc1ccc(CN(C(=O)CCCc2cccs2)C2CC2)cc1 | active: 8.91 µM
C/C(=N\OCc1nc2ccccc2c(=O)n1/N=C/c1cc(C)cc([N+](=O)[O-])c1O)c1ccccc1 | inconclusive: 56.2 µM [inhibitor, partial curve, poor fit]
CC1(C)Cc2c(sc(/N=C/N3CCCC3)c2C#N)C(C)(C)N1 | inactive
CN(Cc1cc(Cl)cc(Cl)c1)[C@H]1C[C@H]2c3[nH]c4ccccc4c3CCN2C(=O)[C@H]1CO | inconclusive: 39.8 µM [inhibitor, partial curve, poor fit]
O=C(NCc1ccccc1)c1cc(C2COCCN2C(=O)c2ccc(Cl)cc2)on1 (stereo unspecified) | inconclusive: 89.1 µM [inhibitor, single point]
Cc1ccc(-c2cc3nc(C)cc(N4CCN(C(=O)c5ccoc5)CC4)n3n2)cc1 | inconclusive: 100 µM [inhibitor, partial curve, poor fit]
Cc1ccc(S(=O)(=O)CC(=O)c2ccc(F)cc2)cc1C | inconclusive: 44.7 µM [inhibitor, partial curve, poor fit]
Cc1ccccc1-n1cnnc1SCCC(=O)Nc1ccc(S(=O)(=O)N(C)C)cc1 | inactive
Cc1cc(/C=C2\NC(=O)N(Cc3ccc(Cl)cc3)C2=O)c(C)n1C | inconclusive: 50.1 µM [inhibitor, partial curve, poor fit]
NNCCc1ccccc1 | active: 5.44 µM
CN(CCOc1ccc(Cl)cc1)C(=O)CN1C(=O)NC2(CCCC2)C1=O | inconclusive: 50.1 µM [inhibitor, partial curve, poor fit]
CCc1nccn1CC(=O)N1CCc2[nH]cnc2C1C(=O)O (stereo unspecified) | inactive
CN(CCc1ccccc1)CC[C@@H]1CC[C@H](O)[C@@H](C(=O)NC2CCCCC2)O1 | inconclusive: 3.55 µM [inhibitor, full curve]
O=C1COCC2(CN1Cc1ccccc1)CN(c1cccnc1)C2 | inconclusive: 17.8 µM [inhibitor, full curve]
O=C(c1cc(=O)c2ccccc2o1)N1CCC(CCN2CCCCC2)CC1 | inconclusive: 12.6 µM [inhibitor, partial curve, poor fit]
CCOc1ccc(S(=O)(=O)N2CCC(C(=O)NCc3ccco3)CC2)cc1 | inactive
CC1=NN(C(=O)c2ccccc2Cl)C(O)(c2cccnc2)C1 (stereo unspecified) | inactive
CCCCNC(=O)c1ccc(-c2nc(CN3CCc4ccccc43)c(C)o2)cc1 | inactive
Fc1ccc(CN2C3=NCCCN3c3ccccc32)cc1 | inactive
Cc1ccc(Nc2c3c(nc4ccccc24)CCC3)cc1F | inconclusive: 35.5 µM [inhibitor, partial curve, poor fit]
